In PubChem BioAssay AID2685 (National Center for Advancing Translational Sciences (NCATS), 2010):
This is one part of the list. These are further read-outs of the screen, such as a control signal, another cell line or another target. No call is given for them. Compounds called inactive in the main read-out are mostly missing here. Potencies come from curve fits of mixed quality, noted in brackets.

Assay: qHTS Assay for Lipid Storage Modulators in Drosophila S3 Cells;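 for cell number change: cells counted by Cell Tracker Red CMTPX staining in the red channel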
Settings: BODIPY lipid droplet fluorescence, 18-24 h; for cell number change: measured here: cell count max response, cells fed with added oleic acid
Procedure, shortened: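 Drosophila S3 cells got compounds at several concentrations plus oleic acid (400 uM solution). Laser-scanning cytometry with 488 nm excitation read lipid droplets at 500-530 nm and cells at 575-640 nm. Percent activity was relative to 20 uM Triacsin C.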

[1] = measured here: lipid fluorescence (Fed channel) AC50, cells fed with added oleic acid
[2] = measured here: cell number channel AC50, cells fed with added oleic acid

CCOC(=O)C1=C(C)NC(=O)NC1c1c(O)ccc2ccccc12 (configuration not stated)
AC50 [1]: 14.6 µM [falling, partial curve, poor fit]

CCOc1ccc(N(CC(=O)NC2CCCCC2)C(=O)CCC(=O)Nc2nccs2)cc1
cell number change: -5.13% | AC50 [1]: 0.116 µM [falling, single point]

CCn1c(O)c(C=NCc2cccs2)c(=O)n(CC)c1=S
cell number change: 9.49%

Cc1ccc(S(=O)(=O)NC(=O)NCc2ccc(Cl)cc2)cc1
cell number change: -2.3% | AC50 [2]: 0.82 µM [rising, partial curve, poor fit] | AC50 [1]: 0.00411 µM [rising, full curve, poor fit]

CCN(CC)S(=O)(=O)c1ccc(N2CCOCC2)c(NC(=O)c2ccccc2)c1
cell number change: 26.4% | AC50 [1]: 6.51 µM [rising, single point]

CCc1cccc(NC(=O)CCS(=O)(=O)c2cc3c(cc2C)NC(=O)CO3)c1
cell number change: -13.3%

O=C(O)CCn1cc(/C=C2/NC(=S)N(c3ccccc3)C2=O)c(-c2ccccc2)n1
cell number change: 33.9% | AC50 [2]: 0.651 µM [rising, full curve]

Cc1cc(C)nc(N/N=C/c2c(CO)cnc(C)c2O)n1
cell number change: -17.1% | AC50 [1]: 0.259 µM [rising, full curve]

CCOC(=O)c1c(-c2ccccc2)oc2ccc(OCC(=O)NN)cc12
cell number change: -25.2% | AC50 [1]: 29.1 µM [falling, single point]

Cc1cccc(C)c1NC(=O)NC1(C(=O)N2CCN3CCCC3C2)CCCCC1 (configuration not stated)
cell number change: 15.5%

COc1ccc(-n2nc(C(=O)NCC(=O)N3CCN(c4ccccc4F)CC3)c3ccccc3c2=O)cc1
cell number change: 4.05%

Cc1cccc(C(=O)O/N=C2\CCSc3ccc(C)cc32)c1
AC50 [2]: 0.146 µM [falling, full curve, poor fit] | AC50 [1]: 23.1 µM [falling, partial curve]

CCOC(=O)/C=C1\SCC(=O)N1CC(=O)NC(c1ccccc1)c1ccccc1
cell number change: -1.1% | AC50 [1]: 20.6 µM [falling, single point]

COc1ccc2[nH]c(C(=O)O)c(CCNC(=O)/C=C/c3ccc(O)c(OC)c3)c2c1
cell number change: -22.8% | AC50 [1]: 3.26 µM [rising, single point]

CCOC(=O)c1c(C)[nH]c(C(=O)COC(=O)C2CC2C)c1C (configuration not stated)
AC50 [2]: 3.66 µM [rising, partial curve]

COc1cc(C(=O)Oc2cccc(/C=N/NC(=O)c3cc(C)[nH]n3)c2)cc(OC)c1OC
cell number change: 19.7% | AC50 [1]: 6.51 µM [rising, partial curve, poor fit]

COCCNS(=O)(=O)c1cc(OC)c(C)cc1C
cell number change: 27% | AC50 [1]: 5.17 µM [rising, partial curve, poor fit]

COc1ccc(Oc2cc(NN3CCCCC3)c([N+](=O)[O-])cc2[N+](=O)[O-])cc1OC
cell number change: 19.1% | AC50 [1]: 29.1 µM [rising, single point]

COc1ccc(NC(=O)CCNS(=O)(=O)c2cc(Br)cnc2N)cc1OC
cell number change: -17.3% | AC50 [1]: 0.731 µM [falling, full curve]

CC(C)Cn1c(N)c(C(=O)COC(=O)c2ccc3c(c2)OCCO3)c(=O)n(C)c1=O
AC50 [2]: 2.06 µM [rising, partial curve] | AC50 [1]: 0.58 µM [rising, single point]

O=C(O)c1cccc(CSc2ncccn2)c1
cell number change: -8.28% | AC50 [1]: 5.8 µM [falling, full curve]

O=C(O)COc1ccc(-c2nnn(Cc3ccccc3F)n2)cc1
cell number change: -4.73% | AC50 [1]: 14.6 µM [falling, single point]

Brc1cc2c(cc1Br)OCCOCCOCCOCCO2
cell number change: 10.4% | AC50 [2]: 2.06 µM [rising, partial curve] | AC50 [1]: 0.116 µM [rising, full curve, poor fit]

CC(C)c1ccc(S(=O)(=O)N2CCN(C(=O)CCNS(=O)(=O)c3ccccc3F)CC2)cc1
cell number change: 27.6% | AC50 [1]: 18.4 µM [rising, single point]

O=C(NCc1ccccc1F)C1CCN(C(=O)NCc2ccccc2)CC1
cell number change: -2.92% | AC50 [1]: 0.00517 µM [falling, full curve, poor fit]

COc1ccc(S(=O)(=O)N(CC(=O)NCc2ccncc2)c2cc(C)cc(C)c2)cc1OC
cell number change: 10.3% | AC50 [1]: 29.1 µM [rising, single point]

Cc1c(C)c2c(OCC(=O)Nc3ccc(CCO)cc3)cc3c(c2oc1=O)CCC(C)(C)O3
cell number change: -10.5% | AC50 [1]: 0.411 µM [falling, full curve]

COc1cccc(NC(=O)C(=O)NCCC2CCCCN2S(=O)(=O)c2ccccc2)c1 (configuration not stated)
AC50 [1]: 10.3 µM [falling, partial curve]

Cc1ccc(NC(=O)CCC(=O)NNC(=O)CCc2ccccc2)c(C)c1
AC50 [2]: 0.00517 µM [rising, full curve, poor fit]

CCOc1ccc(NC(=O)C2CC(=O)N3CCCN=C3S2)cc1 (configuration not stated)
cell number change: 8.36% | AC50 [1]: 29.1 µM [rising, single point]

COCCN(CCOC)S(=O)(=O)c1ccc(C(=O)Nc2ccc(S(=O)(=O)Nc3nccc(C)n3)cc2)cc1
cell number change: -49.2% | AC50 [2]: 16.4 µM [falling, single point] | AC50 [1]: 18.4 µM [falling, single point]

COc1ccc(/C=C/C(=O)Nc2nc(N)n(-c3ccccc3)n2)cc1
cell number change: 13.3% | AC50 [1]: 0.116 µM [rising, full curve]

CCN(CC)Cc1c(C(=O)N/N=C/c2c(Cl)cccc2Cl)nnn1-c1nonc1N
cell number change: 23.1% | AC50 [1]: 5.17 µM [falling, single point]

O=C(CSc1ccccc1C(=O)NCCCN1CCCC1=O)NCc1ccco1
cell number change: -8.3% | AC50 [1]: 6.51 µM [falling, single point]

COc1ccc([N+](=O)[O-])cc1NC(=O)CSc1ccccc1
cell number change: 69.6%

CN(C)S(=O)(=O)c1cccc(C(=O)OCC(=O)Nc2ccccc2OC(F)F)c1
cell number change: 8.54% | AC50 [1]: 0.517 µM [rising, full curve, poor fit]

Clc1ccc(Oc2nnnn2-c2ccccc2)cc1
cell number change: 14.9% | AC50 [1]: 0.206 µM [falling, full curve, poor fit]

CC1CN(C(=O)C(C)Sc2nc3ccccc3s2)CC(C)O1 (configuration not stated)
cell number change: -16.9% | AC50 [2]: 0.0651 µM [falling, full curve, poor fit]

CCCNc1c(F)c(F)c2c(C)c3ccccc3nc2c1F
AC50 [1]: 18.4 µM [falling, partial curve]

O=C(O)Cn1cc2c(n1)CCCC2
cell number change: -19.5%

CC(C)c1nc2ccccc2n1CCC(=O)O
AC50 [1]: 18.4 µM [falling, partial curve]

NC1=NC(=O)C2(COC(c3cccc([N+](=O)[O-])c3)OC2)S1 (configuration not stated)
cell number change: -2.08%

COC(=O)c1ccc(C(=O)OC)c(NC(=S)N2CC(C)CC(C)C2)c1 (configuration not stated)
cell number change: 22.7% | AC50 [1]: 1.64 µM [rising, partial curve, poor fit]

Cc1nc(N2CCOCC2)nc(OCCN(C)C)c1[N+](=O)[O-]
cell number change: 0.25% | AC50 [1]: 14.6 µM [rising, single point]

COc1ccc(CCNC(=S)N2CCN(S(=O)(=O)c3ccc(Cl)cc3)CC2)cc1
cell number change: 19.5%

CCC(Sc1nc(C)cc(=O)[nH]1)C(=O)Nc1nc2c(s1)CCCC2 (configuration not stated)
AC50 [1]: 4.11 µM [falling, partial curve]

COc1ccc(N2CCN(CCCn3c(=S)[nH]c4ccccc4c3=O)CC2)cc1
cell number change: -12.6% | AC50 [2]: 0.731 µM [falling, full curve] | AC50 [1]: 5.17 µM [falling, single point]

COc1ccccc1C(=O)COC(=O)C(CCSC)NC(=O)COc1ccccc1 (configuration not stated)
cell number change: 37% | AC50 [2]: 23.1 µM [rising, single point]

COc1ccc(C(=O)NC(=S)Nc2cc3oc4ccccc4c3cc2OC)cc1
cell number change: -33.3% | AC50 [2]: 32.6 µM [falling, single point] | AC50 [1]: 0.326 µM [rising, full curve, poor fit]

COc1ccccc1C(=O)NC(=O)COC(=O)c1ccc(Cl)cc1[N+](=O)[O-]
cell number change: -4.06% | AC50 [1]: 29.1 µM [rising, single point]

O=C(c1ccncc1)N1CCN(c2cccc(C(F)(F)F)c2)CC1
cell number change: 126% | AC50 [2]: 20.6 µM [rising, partial curve] | AC50 [1]: 1.3 µM [rising, full curve]

CC(=O)CSc1nc2c(c(=O)[nH]c(=O)n2C)n1Cc1cccc(Br)c1
cell number change: -4.39% | AC50 [1]: 20.6 µM [falling, single point]

Cc1ccc(C(=O)Cn2c(-c3ccccc3)noc2=O)cc1
cell number change: 16.5% | AC50 [1]: 29.1 µM [rising, single point]

COc1ccccc1N(CC(O)CN1C(=O)NC(C)(C)C1=O)S(=O)(=O)c1ccc(C)cc1 (configuration not stated)
cell number change: -6.11% | AC50 [1]: 0.0146 µM [falling, full curve, poor fit]

O=C(CCN1CCCCC1)Nc1cccc(Cl)c1
AC50 [1]: 23.1 µM [falling, partial curve]

Cc1nc(N)sc1-c1nnc(SCC(=O)Nc2ccccc2C(F)(F)F)n1C
cell number change: 64.4% | AC50 [2]: 14.6 µM [rising, partial curve] | AC50 [1]: 14.6 µM [rising, partial curve]

COc1ccccc1CNC(=O)CCN1C(=O)c2ccccc2C1=O
cell number change: 13.5% | AC50 [1]: 18.4 µM [rising, single point]

O=C(Nc1cccc2ccccc12)/C(=C\c1cccc([N+](=O)[O-])c1)NC(=O)c1cccs1
cell number change: -8.47% | AC50 [1]: 29.1 µM [falling, single point]

O=C1CC(NCC2CCCO2)C(=O)N1c1ccc(F)cc1 (configuration not stated)
cell number change: -23.7% | AC50 [1]: 2.91 µM [falling, partial curve]

CCc1ccccc1N1C(=O)c2cccc3c(N4CCOCC4)c([N+](=O)[O-])cc(c23)C1=O
cell number change: -40.7% | AC50 [2]: 29.1 µM [falling, single point] | AC50 [1]: 18.4 µM [falling, partial curve]
